According to patent EP0165492B1, “Process for manufacturing preparations promoting wound healing, and such preparations” (BERLIN-CHEMIE Aktiengesellschaft, priority 1984, dated 1992):
At least one peptide structure holds a part that was inferred or is arguable (an end, a ring closure or a residue). Residues, ends and D or L forms follow the SMILES beside them.

Test system: Granulationsgewebe
Assay: Rat wound healing model after RUDAS, synthetic skin substitute SYSpur-derm impregnated with active substance (Example 2)
Format: in vivo, Ratten
Conditions: granulation tissue 3 and 7 days p. op.; SYSpur-derm disc with about 5 µg Lys-Pro; t-test after STUDENT versus saline control

## NCCCC[C@H](N)C(=O)N1CCC[C@H]1C(=O)O [Lys-Pro] (H-Lys-Pro-OH)
  Steigerungsraten der Feuchtgewichte: signifikant gesichert
  Steigerungsraten der Trockengewichte: signifikant gesichert
